Measured values published in patent US20230374177A1, “CYTOSOLIC MICROPARTICLES, PHAGOCYTIC CELLS COMPRISING THE SAME, AND METHODS FOR TREATING DISEASE COMPRISING THE SAME” (Florida State University Research Foundation, Inc., priority 2022, published 2023).
At least one compound was matched to its structure with a doubt left.

Test system: RAW264.7 macrophages
Experiment: Effects of factors on phagosomal rupture at 22° C.
Format: cell-based
Conditions: 22° C. cold shock; chloroquine 100 μM 30 min, tetrandrine 5 μM 30 min, colchicine 5 μM 3 h, LLOMe 1 mM 30 min, hypotonic shock 0.6×PBS

COc1ccc2cc1Oc1ccc(cc1)C[C@H]1c3cc(c(OC)cc3CCN1C)Oc1c(OC)c(OC)cc3c1[C@H](C2)N(C)CC3 [Tetrandrine]
effect on percentage of phagosomal rupture at 22° C. compared to the control: significantly increased
